US12729225B2, “Non-canonical SWI/SNF complex and uses thereof” (Dana-Farber Cancer Institute, Inc., priority 2018, dated 2026)

B1: MTPAP (protein, UniProt Q9NVV4 38-582, looked up)
Poly(A) RNA polymerase, …: KDLRRDEQPSGSVETGFEDKIPKRRFSEMQNERREQAQRTVLIHCPEKISENKFLKYLSQFGPINNHFFYESFGLYAVVEFCQKESIGSLQNGTHTPSTAMETAIPFRSRFFNLKLKNQTSERSRVRSSNQLPRSNKQLFELLCYAESIDDQLNTLLKEFQLTEENTKLRYLTCSLIEDMAAAYFPDCIVRPFGSSVNTFGKLGCDLDMFLDLDETRNLSAHKISGNFLMEFQVKNVPSERIATQKILSVLGECLDHFGPGCVGVQKILNARCPLVRFSHQASGFQCDLTTNNRIALTSSELLYIYGALDSRVRALVFSVRCWARAHSLTSSIPGAWITNFSLTMMVIFFLQRRSPPILPTLDSLKTLADAEDKCVIEGNNCTFVRDLSRIKPSQNTETLELLLKEFFEYFGNFAFDKNSINIRQGREQNKPDSSPLYIQNPFETSLNISKNVSQSQLQKFVDLARESAWILQQEDTDRPSISSNRPWGLVSLLLPSAPNRKSFTKKKSNKFAIETVKNLLESLKGNRTENFTKTSGKRTISTQT
B2: IPO5 (protein, UniProt O00410 2-1097, looked up)
Importin-5: AAAAAEQQQFYLLLGNLLSPDNVVRKQAEETYENIPGQSKITFLLQAIRNTTAAEEARQMAAVLLRRLLSSAFDEVYPALPSDVQTAIKSELLMIIQMETQSSMRKKVCDIAAELARNLIDEDGNNQWPEGLKFLFDSVSSQNVGLREAALHIFWNFPGIFGNQQQHYLDVIKRMLVQCMQDQEHPSIRTLSARATAAFILANEHNVALFKHFADLLPGFLQAVNDSCYQNDDSVLKSLVEIADTVPKYLRPHLEATLQLSLKLCGDTSLNNMQRQLALEVIVTLSETAAAMLRKHTNIVAQTIPQMLAMMVDLEEDEDWANADELEDDDFDSNAVAGESALDRMACGLGGKLVLPMIKEHIMQMLQNPDWKYRHAGLMALSAIGEGCHQQMEGILNEIVNFVLLFLQDPHPRVRYAACNAVGQMATDFAPGFQKKFHEKVIAALLQTMEDQGNQRVQAHAAAALINFTEDCPKSLLIPYLDNLVKHLHSIMVLKLQELIQKGTKLVLEQVVTSIASVADTAEEKFVPYYDLFMPSLKHIVENAVQKELRLLRGKTIECISLIGLAVGKEKFMQDASDVMQLLLKTQTDFNDMEDDDPQISYMISAWARMCKILGKEFQQYLPVVMGPLMKTASIKPEVALLDTQDMENMSDDDGWEFVNLGDQQSFGIKTAGLEEKSTACQMLVCYAKELKEGFVEYTEQVVKLMVPLLKFYFHDGVRVAAAESMPLLLECARVRGPEYLTQMWHFMCDALIKAIGTEPDSDVLSEIMHSFAKCIEVMGDGCLNNEHFEELGGILKAKLEEHFKNQELRQVKRQDEDYDEQVEESLQDEDDNDVYILTKVSDILHSIFSSYKEKVLPWFEQLLPLIVNLICPHRPWPDRQWGLCIFDDVIEHCSPASFKYAEYFLRPMLQYVCDNSPEVRQAAAYGLGVMAQYGGDNYRPFCTEALPLLVRVIQSADSKTKENVNATENCISAVGKIMKFKPDCVNVEEVLPHWLSWLPLHEDKEEAVQTFNYLCDLIESNHPIVLGPNNTNLPKIFSIIAEGEMHEAIKHEDPCAKRLANVVRQVQTSGGLWTECIAQLSPEQQAAIQELLNSA
B3: GCAT (protein, UniProt O75600 22-419, looked up)
2-amino-3-ketobutyrate …: SALAQLRGILEGELEGIRGAGTWKSERVITSRQGPHIRVDGVSGGILNFCANNYLGLSSHPEVIQAGLQALEEFGAGLSSVRFICGTQSIHKNLEAKIARFHQREDAILYPSCYDANAGLFEALLTPEDAVLSDELNHASIIDGIRLCKAHKYRYRHLDMADLEAKLQEAQKHRLRLVATDGAFSMDGDIAPLQEICCLASRYGALVFMDECHATGFLGPTGRGTDELLGVMDQVTIINSTLGKALGGASGGYTTGPGPLVSLLRQRARPYLFSNSLPPAVVGCASKALDLLMGSNTIVQSMAAKTQRFRSKMEAAGFTISGASHPICPVMLGDARLASRMADDMLKRGIFVIGFSYPVVPKGKARIRVQISAVHSEEDIDRCVEAFVEVGRLHGALP
B4: SLC38A2 (protein, UniProt Q96QD8 1-506, looked up)
Sodium-coupled neutral amino …: MKKAEMGRFSISPDEDSSSYSSNSDFNYSYPTKQAALKSHYADVDPENQNFLLESNLGKKKYETEFHPGTTSFGMSVFNLSNAIVGSGILGLSYAMANTGIALFIILLTFVSIFSLYSVHLLLKTANEGGSLLYEQLGYKAFGLVGKLAASGSITMQNIGAMSSYLFIVKYELPLVIQALTNIEDKTGLWYLNGNYLVLLVSLVVILPLSLFRNLGYLGYTSGLSLLCMVFFLIVVICKKFQVPCPVEAALIINETINTTLTQPTALVPALSHNVTENDSCRPHYFIFNSQTVYAVPILIFSFVCHPAVLPIYEELKDRSRRRMMNVSKISFFAMFLMYLLAALFGYLTFYEHVESELLHTYSSILGTDILLLIVRLAVLMAVTLTVPVVIFPIRSSVTHLLCASKDFSWWRHSLITVSILAFTNLLVIFVPTIRDIFGFIGASAASMLIFILPSAFYIKLVKKEPMKSVQKIGALFFLLSGVLVMTGSMALIVLDWVHNAPGGGH
B5: TMLHE (protein, UniProt Q9NVH6 16-421, looked up)
Trimethyllysine dioxygenase, …: LLKGGVIYPALPQPNFKSLLPLAVHWHHTASKSLTCAWQQHEDHFELKYANTVMRFDYVWLRDHCRSASCYNSKTHQRSLDTASVDLCIKPKTIRLDETTLFFTWPDGHVTKYDLNWLVKNSYEGQKQKVIQPRILWNAEIYQQAQVPSVDCQSFLETNEGLKKFLQNFLLYGIAFVENVPPTQEHTEKLAERISLIRETIYGRMWYFTSDFSRGDTAYTKLALDRHTDTTYFQEPCGIQVFHCLKHEGTGGRTLLVDGFYAAEQVLQKAPEEFELLSKVPLKHEYIEDVGECHNHMIGIGPVLNIYPWNKELYLIRYNNYDRAVINTVPYDVVHRWYTAHRTLTIELRRPENEFWVKLKPGRVLFIDNWRVLHGRECFTGYRQLCGCYLTRDDVLNTARLLGLQA
B6: PDS5A (protein, UniProt Q29RF7 1-1337, looked up)
Sister chromatid cohesion …: MDFTAQPKPATALCGVVSADGKIAYPPGVKEITDKITTDEMIKRLKMVVKTFMDMDQDSEDEKQQYLPLALHLASEFFLRNPNKDVRLLVACCLADIFRIYAPEAPYTSHDKLKDIFLFITRQLKGLEDTKSPQFNRYFYLLENLAWVKSYNICFELEDCNEIFIQLFRTLFSVINNSHNKKVQMHMLDLMSSIIMEGDGVTQELLDSILINLIPAHKNLNKQSFDLAKVLLKRTVQTIEACIANFFNQVLVLGRSSVSDLSEHVFDLIQELFAIDPHLLLSVMPQLEFKLKSNDGEERLAVVRLLAKLFGSKDSDLATQNRPLWQCFLGRFNDIHVPVRLESVKFASHCLMNHPDLAKDLTEYLKVRSHDPEEAIRHDVIVTIITAAKRDLALVNDQLLGFVRERTLDKRWRVRKEAMMGLAQLYKKYCLHGEAGKEAAEKVSWIKDKLLHIYYQNSIDDKLLVEKIFAQYLVPHNLETEERMKCLYYLYASLDPNAVKALNEMWKCQNMLRSHVRELLDLHKQPTSEANCSAMFGKLMTIAKNLPDPGKAQDFVKKFNQVLGDDEKLRSQLELLISPTCSCKQADICVREIARKLANPKQPTNPFLEMVKFLLERIAPVHIDSEAISALVKLMNKSIEGTADDEEEGVSPDTAIRSGLELLKVLSFTHPTSFHSAETYESLLQCLRMEDDKVAEAAIQIFRNTGHKIETDLPQIRSTLIPILHQKAKRGTPHQAKQAVHCIHAIFTNKEVQLAQIFEPLSRSLNADVPEQLITPLVSLGHISMLAPDQFASPMKSVVANFIVKDLLMNDRSTGEKNGKLWSPDEEVSPEVLAKVQAIKLLVRWLLGMKNNQSKSANSTLRLLSAMLVSEGDLTEQKRISKSDMSRLRLAAGSAIMKLAQEPCYHEIITPEQFQLCALVINDECYQVRQIFAQKLHKALVKLLLPLEYMAIFALCAKDPVKERRAHARQCLLKNISIRREYIKQNPMATEKLLSLLPEYVVPYMIHLLAHDPDFTRSQDVDQLRDIKECLWFMLEVLMTKNENNSHAFMKKMAENIKLTRDAQSPDESKTNEKLYTVCDVALCVINSKSALCNADSPKDPVLPMKFFTQPEKDFCNDKSYISEETRVLLLTGKPKPAGVLGAVNKPLSATGRKPYVRSTGTETGSNINVNSELNPSTGNRSREQSSEAAETGVSENEENPVRIISVTPVKNIDPVKNKEINSDQATQGNISSDRGKKRTVTAAGAENIQQKTDEKVDESGPPAPSKPRRGRRPKSESQGNATKNDDLNKPINKGRKRAAVGQESPGGLEAGNAKAPKLQDLAKKAAPAERQIDLQR
B7: ZMPSTE24 (protein, UniProt O75844 1-475, looked up)
CAAX prenyl protease 1 homolog: MGMWASLDALWEMPAEKRIFGAVLLFSWTVYLWETFLAQRQRRIYKTTTHVPPELGQIMDSETFEKSRLYQLDKSTFSFWSGLYSETEGTLILLFGGIPYLWRLSGRFCGYAGFGPEYEITQSLVFLLLATLFSALTGLPWSLYNTFVIEEKHGFNQQTLGFFMKDAIKKFVVTQCILLPVSSLLLYIIKIGGDYFFIYAWLFTLVVSLVLVTIYADYIAPLFDKFTPLPEGKLKEEIEVMAKSIDFPLTKVYVVEGSKRSSHSNAYFYGFFKNKRIVLFDTLLEEYSVLNKDIQEDSGMEPRNEEEGNSEEIKAKVKNKKQGCKNEEVLAVLGHELGHWKLGHTVKNIIISQMNSFLCFFLFAVLIGRKELFAAFGFYDSQPTLIGLLIIFQFIFSPYNEVLSFCLTVLSRRFEFQADAFAKKLGKAKDLYSALIKLNKDNLGFPVSDWLFSMWHYSHPPLLERLQALKTMKQH
B8: HSDL2 (protein, UniProt Q6YN16 1-418, looked up)
Hydroxysteroid …: MLPNTGRLAGCTVFITGASRGIGKAIALKAAKDGANIVIAAKTAQPHPKLLGTIYTAAEEIEAVGGKALPCIVDVRDEQQISAAVEKAIKKFGGIDILVNNASAISLTNTLDTPTKRLDLMMNVNTRGTYLASKACIPYLKKSKVAHILNISPPLNLNPVWFKQHCAYTIAKYGMSMYVLGMAEEFKGEIAVNALWPKTAIHTAAMDMLGGPGIESQCRKVDIIADAAYSIFQKPKSFTGNFVIDENILKEEGIENFDVYAIKPGHPLQPDFFLDEYPEAVSKKVESTGAVPEFKEEKLQLQPKPRSGAVEETFRIVKDSLSDDVVKATQAIYLFELSGEDGGTWFLDLKSKGGNVGYGEPSDQADVVMSMTTDDFVKMFSGKLKPTMAFMSGKLKIKGNMALAIKLEKLMNQMNARL
B9: GNL3 (protein, UniProt Q9BVP2 1-549, looked up)
Guanine nucleotide-binding …: MKRPKLKKASKRMTCHKRYKIQKKVREHHRKLRKEAKKRGHKKPRKDPGVPNSAPFKEALLREAELRKQRLEELKQQQKLDRQKELEKKRKLETNPDIKPSNVEPMEKEFGLCKTENKAKSGKQNSKKLYCQELKKVIEASDVVLEVLDARDPLGCRCPQVEEAIVQSGQKKLVLILNKSDLVPKENLESWLNYLKKELPTVVFRASTKPKDKGKITKRVKAKKNAAPFRSEVCFGKEGLWKLLGGFQETCSKAIRVGVIGFPNVGKSSIINSLKQEQMCNVGVSMGLTRSMQVVPLDKQITIIDSPSFIVSPLNSSSALALRSPASIEVVKPMEAASAILSQADARQVVLKYTVPGYRNSLEFFTVLAQRRGMHQKGGIPNVEGAAKLLWSEWTGASLAYYCHPPTSWTPPPYFNESIVVDMKSGFNLEELEKNNAQSIRAIKGPHLANSILFQSSGLTNGIIEEKDIHEELPKRKERKQEEREDDKDSDQETVDEEVDENSSGMFAAEETGEALSEETTAGEQSTRSFILDKIIEEDDAYDFSTDYV

System: mSWI/SNF complexes
Assay: mSWI/SNF complex purification with HA-tagged baits and mass spectrometry (peptide counts)
Parameters: species or system human
[1] = 293_HA-BRD7 bait purification, mass spectrometry, total peptides per co-purified protein
[2] = 293_HA-BRD7 bait purification, mass spectrometry, unique peptides per co-purified protein

Molecule | Total [1] | Unique [2] | Total (293_HA-BRD7: HA-BRD7 bait purification, total peptide count per co-purified protein) | Unique (293_HA-BRD7: HA-BRD7 bait purification, unique peptide count per co-purified protein)
B1 | 1 | 1 | – | –
B2 | 1 | 1 | – | –
B3 | 1 | 1 | – | –
B4 | 1 | 1 | – | –
B5 | 1 | 1 | – | –
B6 | 1 | 1 | – | –
B7 | 1 | 1 | – | –
B8 | 1 | 1 | – | –
B9 | – | – | 17 | 15
